# PubChem BioAssay AID1259308, NCATS – 2017
# Screen: 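Knock-downs that increase output of a recombinant reporter protein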 (primary screen)
# Cells: human HEK293 embryonic kidney cells stably expressing firefly luciferase (HEK-CMV-Luc2-Hygro)
# Reagent: single siRNA against human genes, 0.8 pmol siRNA per well
# Timing: 72 h
# Measured: 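Luciferase light (ONE-Glo) measured on one replicate plate set and viability (CellTiter-Glo) on the other, scaled to a negative control siRNA, with robust z-scores and luciferase per cell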
# Scale: total luciferase, z-score and total luciferase, % of control: higher = more reporter protein produced; luciferase per cell, z-score: higher = more reporter output per viable cell; viable cells, % of control: higher = more viable cells
# Rule for the call: 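An siRNA counts as active if its total luciferase robust z-score exceeds 3; genes with two or more such siRNAs out of three were retested with fresh siRNAs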
# Meaning of the calls: active = raised luciferase; inactive = no rise
# The whole screen tested about 59,000 reagents; shown is an unselected part. In the full data, about 1,510 (2.6%) got an active call. 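Calls use total luciferase alone and ignore viability, so some active siRNAs may act by altering cell number.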 Unmarked entries are inactive. The numbers tell different reagents against one gene apart. Reagent sequences are not shown.
gene symbol,siRNA no.,"total luciferase, z-score","total luciferase, % of control","luciferase per cell, z-score","viable cells, % of control"
FBXO28,1,1.07,103,0.995,88.8
FBXO28,2,0.0238,82.4,0.0708,90.3
FBXO28,3,-0.47,72.5,-0.418,90.5
MCHR1,1,0.96,101,3.14,49.4
MCHR1,2,0.37,89.2,-0.405,111
MCHR1,3,-0.683,68.3,-1.04,100
APOF,1,-1.3,56.1,-1.61,95.7
APOF,2,-0.248,77,0.896,67.9
APOF,3,-0.0845,80.2,-0.76,109
SMR3A,1,0.452,90.9,0.118,98.4
SMR3A,2,-0.608,69.8,-0.219,82.6
SMR3A,3,0.0995,83.9,-0.00291,93.8
HNRNPL,1,-0.244,77,-0.525,98.8
HNRNPL,2,-0.109,79.7,-0.388,98.7
HNRNPL,3,-1.18,58.3,-0.0541,66.1
TCF20,1,-0.146,79,-0.585,103
TCF20,2,-0.355,74.8,-0.94,107
TCF20,3,0.613,94.1,0.798,85.2
ZIC4,1,0.176,85.4,0.282,88.6
ZIC4,2,-0.298,76,-0.259,90.9
ZIC4,3,-0.767,66.6,-0.637,88.1
SF3B5,1,3.85 (active),158,4.44,55.1
SF3B5,2,1.03,102,2.85,54
SF3B5,3,1.38,109,3.25,51.9
PTCH1,1,-1.01,61.7,-0.626,81.3
PTCH1,2,0.522,92.3,0.964,80
PTCH1,3,-3,22.2,-4.08,72.6
LINC01567,1,1.08,103,1.18,84.7
LINC01567,2,0.153,84.9,0.0747,93.1
LINC01567,3,1.08,103,1.86,70.8
PIK3R1,1,0.212,86.1,0.0857,94.1
PIK3R1,2,0.665,95.1,1.03,81
PIK3R1,3,0.802,97.8,0.0504,108
ZYG11B,1,0.0351,82.6,-0.326,101
ZYG11B,2,0.0147,82.2,-0.11,94.5
ZYG11B,3,0.257,87,0.415,87.2
IFITM3P2,1,-1.61,49.8,-1.18,75.9
IFITM3P2,2,3.28 (active),147,3.2,70.8
IFITM3P2,3,0.468,91.2,0.916,80.1
LINC00619,1,-1.03,61.5,-0.3,74.3
LINC00619,2,-0.168,78.5,-0.0814,89.7
LINC00619,3,-1.01,61.9,-0.808,85.5
PIGW,1,0.0384,82.7,-0.261,98.9
PIGW,2,0.507,92,0.354,93.6
PIGW,3,-1.08,60.4,-0.934,86.4
HCG27,1,0.226,86.4,-0.275,104
HCG27,2,1.14,105,1.26,83.8
HCG27,3,0.649,94.8,0.552,91.6
FAM27E5,1,0.986,102,0.324,104
FAM27E5,2,-0.371,74.5,0.131,80.4
FAM27E5,3,0.0333,82.5,0.0775,90.4
VIRMA,1,-1.47,52.6,-1.9,97
VIRMA,2,-0.209,77.7,-0.305,94.1
VIRMA,3,-1.96,43,-2.61,95.6
PLBD1,1,1.68,115,1.52,86.2
PLBD1,2,-1.02,61.7,-0.907,87.5
PLBD1,3,-0.34,75.1,-0.402,93.3
